Results as given in the supplement of paper PMC10849652.
This is one part of the list.

Protein sequences, listed by entry. Tags and fused reporters are not part of them. Lines headed by an entry give the natural chain unless they say otherwise; changes in a name come on top.
UniProt O75340: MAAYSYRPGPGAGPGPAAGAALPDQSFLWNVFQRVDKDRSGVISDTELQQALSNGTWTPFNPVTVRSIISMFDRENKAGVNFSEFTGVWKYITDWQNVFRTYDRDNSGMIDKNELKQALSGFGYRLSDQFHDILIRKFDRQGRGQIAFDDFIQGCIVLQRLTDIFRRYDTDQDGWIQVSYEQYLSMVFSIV
UniProt Q15366, whole entry, looked up: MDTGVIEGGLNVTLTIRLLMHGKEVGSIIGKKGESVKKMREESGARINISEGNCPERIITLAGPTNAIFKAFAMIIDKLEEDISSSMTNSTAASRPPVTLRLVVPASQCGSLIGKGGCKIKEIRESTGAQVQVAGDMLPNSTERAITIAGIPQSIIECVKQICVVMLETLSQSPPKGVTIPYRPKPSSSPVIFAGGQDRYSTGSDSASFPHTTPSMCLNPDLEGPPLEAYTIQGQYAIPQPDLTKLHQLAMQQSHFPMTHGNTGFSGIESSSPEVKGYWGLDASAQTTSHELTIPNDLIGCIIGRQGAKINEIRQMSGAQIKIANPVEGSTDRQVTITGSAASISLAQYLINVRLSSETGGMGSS
UniProt Q58A45: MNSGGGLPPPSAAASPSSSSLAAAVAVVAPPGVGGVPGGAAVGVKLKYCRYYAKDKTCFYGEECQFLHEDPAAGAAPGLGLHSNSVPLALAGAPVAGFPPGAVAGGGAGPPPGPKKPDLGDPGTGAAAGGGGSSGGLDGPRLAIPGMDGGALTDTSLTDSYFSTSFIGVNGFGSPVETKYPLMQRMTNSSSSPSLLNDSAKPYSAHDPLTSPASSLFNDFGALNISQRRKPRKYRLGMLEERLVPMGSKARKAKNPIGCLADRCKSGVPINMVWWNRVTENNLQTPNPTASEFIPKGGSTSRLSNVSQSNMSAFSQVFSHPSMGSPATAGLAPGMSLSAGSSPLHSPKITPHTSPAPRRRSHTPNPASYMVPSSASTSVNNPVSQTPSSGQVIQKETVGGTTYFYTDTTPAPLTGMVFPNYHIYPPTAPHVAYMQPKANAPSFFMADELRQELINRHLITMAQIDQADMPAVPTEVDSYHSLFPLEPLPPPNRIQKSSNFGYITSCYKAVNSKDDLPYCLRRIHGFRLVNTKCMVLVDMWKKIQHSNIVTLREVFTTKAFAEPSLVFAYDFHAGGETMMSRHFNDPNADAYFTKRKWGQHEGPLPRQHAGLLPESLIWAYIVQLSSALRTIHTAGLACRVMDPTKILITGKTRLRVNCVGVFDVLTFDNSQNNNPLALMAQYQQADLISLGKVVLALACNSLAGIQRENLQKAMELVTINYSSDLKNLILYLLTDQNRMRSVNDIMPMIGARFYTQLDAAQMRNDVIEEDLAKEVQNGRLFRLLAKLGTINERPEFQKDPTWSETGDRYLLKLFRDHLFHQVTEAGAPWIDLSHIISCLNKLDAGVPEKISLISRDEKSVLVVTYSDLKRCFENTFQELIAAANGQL
UniProt Q15154: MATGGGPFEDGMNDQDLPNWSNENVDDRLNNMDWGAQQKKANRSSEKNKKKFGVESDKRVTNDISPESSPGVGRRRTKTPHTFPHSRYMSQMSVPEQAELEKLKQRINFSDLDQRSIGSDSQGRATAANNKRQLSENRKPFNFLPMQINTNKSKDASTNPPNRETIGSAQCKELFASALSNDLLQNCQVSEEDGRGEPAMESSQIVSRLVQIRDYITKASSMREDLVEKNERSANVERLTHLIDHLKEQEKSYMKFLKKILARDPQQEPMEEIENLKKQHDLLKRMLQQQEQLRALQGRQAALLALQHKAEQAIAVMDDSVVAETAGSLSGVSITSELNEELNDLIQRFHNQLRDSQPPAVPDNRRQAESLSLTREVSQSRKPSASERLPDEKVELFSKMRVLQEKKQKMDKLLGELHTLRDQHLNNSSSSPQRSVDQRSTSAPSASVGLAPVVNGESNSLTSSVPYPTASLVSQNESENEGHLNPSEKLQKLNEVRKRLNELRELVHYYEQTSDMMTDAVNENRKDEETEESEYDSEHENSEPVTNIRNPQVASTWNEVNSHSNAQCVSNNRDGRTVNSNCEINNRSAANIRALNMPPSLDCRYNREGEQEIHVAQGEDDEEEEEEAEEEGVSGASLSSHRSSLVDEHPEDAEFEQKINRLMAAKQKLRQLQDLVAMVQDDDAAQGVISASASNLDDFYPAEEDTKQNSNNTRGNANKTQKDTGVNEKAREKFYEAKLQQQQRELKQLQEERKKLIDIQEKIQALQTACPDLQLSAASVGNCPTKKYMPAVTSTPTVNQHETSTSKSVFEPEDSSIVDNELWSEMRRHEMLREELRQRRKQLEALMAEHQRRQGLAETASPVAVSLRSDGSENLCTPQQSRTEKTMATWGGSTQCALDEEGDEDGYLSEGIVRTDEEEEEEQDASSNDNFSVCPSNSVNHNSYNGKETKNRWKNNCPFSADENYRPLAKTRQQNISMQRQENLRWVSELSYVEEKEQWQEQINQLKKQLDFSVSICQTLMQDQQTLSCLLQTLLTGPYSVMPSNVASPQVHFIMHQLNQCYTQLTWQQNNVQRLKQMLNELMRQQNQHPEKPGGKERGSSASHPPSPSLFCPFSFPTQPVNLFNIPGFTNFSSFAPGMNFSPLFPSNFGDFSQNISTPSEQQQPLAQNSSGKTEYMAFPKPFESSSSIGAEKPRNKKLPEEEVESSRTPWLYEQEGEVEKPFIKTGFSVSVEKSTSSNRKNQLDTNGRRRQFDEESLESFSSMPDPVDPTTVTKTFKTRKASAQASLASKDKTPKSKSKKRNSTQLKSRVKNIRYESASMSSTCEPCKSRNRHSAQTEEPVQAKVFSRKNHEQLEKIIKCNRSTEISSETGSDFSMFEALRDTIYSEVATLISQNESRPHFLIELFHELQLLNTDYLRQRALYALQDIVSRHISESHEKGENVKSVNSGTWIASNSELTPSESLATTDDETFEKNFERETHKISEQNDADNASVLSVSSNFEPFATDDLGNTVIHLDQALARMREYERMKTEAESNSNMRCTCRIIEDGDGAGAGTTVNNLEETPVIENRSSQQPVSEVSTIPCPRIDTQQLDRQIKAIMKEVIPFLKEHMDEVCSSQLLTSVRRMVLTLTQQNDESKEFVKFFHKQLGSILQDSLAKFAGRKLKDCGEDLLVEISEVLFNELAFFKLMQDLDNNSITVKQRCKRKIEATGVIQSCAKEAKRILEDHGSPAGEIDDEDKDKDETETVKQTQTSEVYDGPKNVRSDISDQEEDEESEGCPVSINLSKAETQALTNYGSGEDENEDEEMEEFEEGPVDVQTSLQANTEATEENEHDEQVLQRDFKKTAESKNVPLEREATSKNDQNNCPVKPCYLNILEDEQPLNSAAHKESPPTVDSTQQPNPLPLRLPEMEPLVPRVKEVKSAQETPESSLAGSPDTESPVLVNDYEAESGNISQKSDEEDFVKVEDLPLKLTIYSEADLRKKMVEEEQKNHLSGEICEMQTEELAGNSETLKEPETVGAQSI
UniProt O43924: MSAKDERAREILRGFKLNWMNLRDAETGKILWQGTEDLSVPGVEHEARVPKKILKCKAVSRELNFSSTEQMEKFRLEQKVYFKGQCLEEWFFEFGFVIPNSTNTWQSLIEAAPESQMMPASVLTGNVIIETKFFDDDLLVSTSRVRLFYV
UniProt Q9UBM1: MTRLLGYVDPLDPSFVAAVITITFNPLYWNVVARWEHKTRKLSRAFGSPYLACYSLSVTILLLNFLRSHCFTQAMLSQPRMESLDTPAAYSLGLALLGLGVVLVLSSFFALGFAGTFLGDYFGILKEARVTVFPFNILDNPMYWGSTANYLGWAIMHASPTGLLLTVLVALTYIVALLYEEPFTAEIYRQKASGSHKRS
UniProt O00623: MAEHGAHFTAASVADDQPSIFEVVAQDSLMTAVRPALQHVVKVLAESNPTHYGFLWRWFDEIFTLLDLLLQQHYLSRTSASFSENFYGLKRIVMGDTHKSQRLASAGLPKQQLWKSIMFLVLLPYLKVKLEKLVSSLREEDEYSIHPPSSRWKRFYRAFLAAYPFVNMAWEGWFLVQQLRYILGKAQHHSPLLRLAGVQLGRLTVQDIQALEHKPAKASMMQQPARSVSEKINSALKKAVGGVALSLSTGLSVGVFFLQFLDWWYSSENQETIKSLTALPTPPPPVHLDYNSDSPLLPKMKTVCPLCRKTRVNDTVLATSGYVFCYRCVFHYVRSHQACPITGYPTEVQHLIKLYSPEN
UniProt O75781: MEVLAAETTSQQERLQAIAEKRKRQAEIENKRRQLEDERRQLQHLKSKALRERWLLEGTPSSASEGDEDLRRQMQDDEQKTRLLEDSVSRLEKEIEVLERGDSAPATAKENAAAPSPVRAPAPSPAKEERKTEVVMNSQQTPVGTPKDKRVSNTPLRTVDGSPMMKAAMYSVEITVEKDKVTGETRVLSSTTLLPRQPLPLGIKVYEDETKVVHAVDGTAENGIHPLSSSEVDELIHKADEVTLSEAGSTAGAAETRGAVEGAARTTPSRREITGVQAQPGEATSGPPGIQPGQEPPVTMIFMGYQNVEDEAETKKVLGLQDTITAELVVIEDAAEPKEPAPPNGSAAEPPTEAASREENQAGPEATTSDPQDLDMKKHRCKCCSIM
UniProt Q9H6A9: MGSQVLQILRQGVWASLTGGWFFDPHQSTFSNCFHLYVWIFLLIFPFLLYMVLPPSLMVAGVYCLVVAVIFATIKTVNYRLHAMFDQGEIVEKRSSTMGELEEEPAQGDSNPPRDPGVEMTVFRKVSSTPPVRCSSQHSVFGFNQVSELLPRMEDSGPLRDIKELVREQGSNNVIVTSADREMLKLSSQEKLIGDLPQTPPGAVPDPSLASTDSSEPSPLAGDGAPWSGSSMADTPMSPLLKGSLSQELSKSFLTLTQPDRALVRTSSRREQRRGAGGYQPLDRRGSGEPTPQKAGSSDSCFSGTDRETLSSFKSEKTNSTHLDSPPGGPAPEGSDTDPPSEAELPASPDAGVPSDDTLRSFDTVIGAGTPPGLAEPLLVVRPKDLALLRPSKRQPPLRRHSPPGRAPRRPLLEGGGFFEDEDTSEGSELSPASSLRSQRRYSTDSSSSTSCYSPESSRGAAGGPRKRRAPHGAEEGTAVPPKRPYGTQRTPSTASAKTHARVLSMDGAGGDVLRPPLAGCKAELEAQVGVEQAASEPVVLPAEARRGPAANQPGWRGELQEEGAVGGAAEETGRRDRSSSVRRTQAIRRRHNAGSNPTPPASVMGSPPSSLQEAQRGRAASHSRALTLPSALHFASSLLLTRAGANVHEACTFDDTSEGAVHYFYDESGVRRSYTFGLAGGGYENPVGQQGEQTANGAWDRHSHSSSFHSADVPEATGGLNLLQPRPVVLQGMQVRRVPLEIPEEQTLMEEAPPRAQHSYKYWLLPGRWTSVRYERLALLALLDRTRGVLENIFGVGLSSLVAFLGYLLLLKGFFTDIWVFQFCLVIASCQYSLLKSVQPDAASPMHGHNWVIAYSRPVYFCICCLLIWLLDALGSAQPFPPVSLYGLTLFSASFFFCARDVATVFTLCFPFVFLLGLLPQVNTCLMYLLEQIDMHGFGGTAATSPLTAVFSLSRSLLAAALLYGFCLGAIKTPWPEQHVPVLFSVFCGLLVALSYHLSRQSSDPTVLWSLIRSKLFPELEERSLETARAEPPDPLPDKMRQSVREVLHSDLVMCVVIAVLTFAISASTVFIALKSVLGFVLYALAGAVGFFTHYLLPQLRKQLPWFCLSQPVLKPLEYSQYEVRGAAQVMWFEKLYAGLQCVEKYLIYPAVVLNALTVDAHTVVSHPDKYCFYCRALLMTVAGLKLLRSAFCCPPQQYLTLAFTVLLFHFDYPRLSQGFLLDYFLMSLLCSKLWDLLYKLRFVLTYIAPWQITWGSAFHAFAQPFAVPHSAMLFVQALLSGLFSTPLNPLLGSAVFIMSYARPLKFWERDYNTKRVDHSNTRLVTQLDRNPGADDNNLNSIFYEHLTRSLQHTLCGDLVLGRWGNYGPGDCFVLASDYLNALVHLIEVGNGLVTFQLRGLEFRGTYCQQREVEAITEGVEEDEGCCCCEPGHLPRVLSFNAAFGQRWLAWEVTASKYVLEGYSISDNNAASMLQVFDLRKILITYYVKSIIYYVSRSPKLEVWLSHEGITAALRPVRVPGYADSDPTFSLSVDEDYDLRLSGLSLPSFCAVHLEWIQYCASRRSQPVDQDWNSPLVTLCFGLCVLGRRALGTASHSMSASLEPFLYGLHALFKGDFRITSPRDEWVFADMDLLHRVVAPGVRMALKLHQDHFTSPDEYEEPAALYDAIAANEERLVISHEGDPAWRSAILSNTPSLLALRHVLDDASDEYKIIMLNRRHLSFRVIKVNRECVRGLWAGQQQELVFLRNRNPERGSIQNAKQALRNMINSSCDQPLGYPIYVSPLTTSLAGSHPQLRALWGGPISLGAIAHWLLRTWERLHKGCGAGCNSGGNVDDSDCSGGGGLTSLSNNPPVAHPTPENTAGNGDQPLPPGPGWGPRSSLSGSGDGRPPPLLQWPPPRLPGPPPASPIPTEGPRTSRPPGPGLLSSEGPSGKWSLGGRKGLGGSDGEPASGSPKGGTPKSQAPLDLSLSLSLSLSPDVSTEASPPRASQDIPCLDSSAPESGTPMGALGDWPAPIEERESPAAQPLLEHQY

How the values were obtained:
Test in all cases: log2 fold change, soluble protein after heating vs DMSO (PISA); higher = thermal stabilisation; K562 cells, 10 uM, 30 min; active = over 0.2 and 3.5 SD of the protein, either way, in both replicates (recomputed)
[1] = compound: CC[C@@H]1C(=O)N(C)c2cnc(Nc3ccc(C(=O)NC4CCN(C)CC4)cc3OC)nc2N1C1CCCC1
Summary of the method: (§1)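 Aliquots of K562 cells (2×10^6 cells/mL) treated with 10 μM compound for 30 min were heated for 3 min over 48°C-58°C. After pooling and extraction in PBS with 0.5% NP-40 at 4°C, soluble protein from a 21,000xg, 90 min spin was quantified by TMTpro 16plex LC-MS/MS with channel sums equalised. Thermal stability is expressed against control samples, from duplicates, as a log2 fold change.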

volasertib = compound: CC[C@@H]1C(=O)N(C)c2cnc(Nc3ccc(C(=O)N[C@H]4CC[C@H](N5CCN(CC6CC6)CC5)CC4)cc3OC)nc2N1C(C)C [volasertib]
Summary of the method: as §1

[2] = compound: CC[C@H](C)N1C=C(C2=C(C=C(C=C21)C3=CN=C(C=C3)N4CCNCC4)C(=O)NCC5=C(C=C(NC5=O)C)C)C
Summary of the method: as §1

epoxomicin = compound: CC[C@H](C)[C@@H](C(=O)N[C@@H]([C@@H](C)O)C(=O)N[C@@H](CC(C)C)C(=O)[C@]1(CO1)C)NC(=O)[C@H]([C@@H](C)CC)N(C)C(=O)C [epoxomicin]
Summary of the method: as §1

[3] = compound: CCn1cc(-c2ccnc3[nH]c(-c4cccc(CN(C)C)c4)cc23)c(-c2ccc(NC(=O)N(C)C)cc2)n1
Summary of the method: as §1

[4] = compound: CN(C)CC(=O)Nc1ccc2[nH]c(=O)c3ccccc3c2c1
Summary of the method: as §1

[5] = compound: CN1C2=C(C3=C1C(=O)N(N=C3)CC4=CC(=CC=C4)N)SC(=C2)S(=O)C
Summary of the method: as §1

[6] = compound: CN1CCC(CNc2ccc3ncc(-c4cccc(OC(F)(F)F)c4)n3n2)CC1
Summary of the method: as §1

rosiglitazone = compound: CN(CCOC1=CC=C(C=C1)C[C@H]2C(=O)NC(=O)S2)C3=CC=CC=N3 (racemic) [rosiglitazone]
Summary of the method: as §1

[7] = compound: CCn1c(C(=O)N(C2CC2)C2CC2)cc2c3c(ncn3C)c(Nc3cc(C)n(C)n3)nc21
Summary of the method: as §1

PCBP1 (UniProt Q15365)
log2 fold change [1]: inactive: -0.1 | log2 fold change (volasertib): active: -0.268 | log2 fold change [2]: inactive: 0.04 | log2 fold change (epoxomicin): inactive: 0.025 | log2 fold change [3]: inactive: 0.025 | log2 fold change [4]: inactive: 0.039 | log2 fold change [5]: inactive: 0.009 | log2 fold change [6]: inactive: -0.129

PEF1 (UniProt Q9UBV8)
log2 fold change [1]: inactive: -0.144 | log2 fold change (volasertib): active: -0.329 | log2 fold change [2]: inactive: 0.035 | log2 fold change (epoxomicin): inactive: 0.101 | log2 fold change [3]: inactive: 0.002 | log2 fold change [4]: inactive: -0.061 | log2 fold change [5]: inactive: -0.005 | log2 fold change [6]: inactive: 0.048

PDCD6 (UniProt O75340)
log2 fold change [1]: inactive: -0.157 | log2 fold change (volasertib): active: -0.283 | log2 fold change [2]: inactive: -0.006 | log2 fold change (epoxomicin): inactive: 0.031 | log2 fold change [3]: inactive: -0.01 | log2 fold change [4]: inactive: 0.007 | log2 fold change [5]: inactive: -0.041 | log2 fold change [6]: inactive: -0.057

PCK2 (UniProt Q16822)
log2 fold change [1]: inactive: 0.012 | log2 fold change (volasertib): inactive: -0.076 | log2 fold change [2]: inactive: 0.033 | log2 fold change (epoxomicin): inactive: 0.059 | log2 fold change [3]: inactive: -0.07 | log2 fold change [4]: inactive: 0 | log2 fold change [5]: inactive: -0.094 | log2 fold change [6]: inactive: 0.027

PDCD6IP (UniProt Q8WUM4)
log2 fold change [1]: inactive: -0.219 | log2 fold change (volasertib): active: -0.694 | log2 fold change [2]: inactive: 0.166 | log2 fold change (epoxomicin): inactive: 0.082 | log2 fold change [3]: inactive: -0.06 | log2 fold change [4]: inactive: 0.116 | log2 fold change [5]: inactive: 0.043 | log2 fold change [6]: inactive: -0.256

PCYT1A (UniProt P49585)
log2 fold change [1]: inactive: -0.219 | log2 fold change (volasertib): active: -0.332 | log2 fold change [2]: inactive: 0.042 | log2 fold change (epoxomicin): inactive: 0.028 | log2 fold change [3]: inactive: -0.019 | log2 fold change [4]: inactive: 0.017 | log2 fold change [5]: inactive: -0.022 | log2 fold change [6]: inactive: -0.111

PCBP2 isoform 3 (UniProt Q15366)
log2 fold change [1]: inactive: -0.069 | log2 fold change (volasertib): active: -0.263 | log2 fold change [2]: inactive: 0.071 | log2 fold change (epoxomicin): inactive: 0.013 | log2 fold change [3]: inactive: -0.003 | log2 fold change [4]: inactive: 0.043 | log2 fold change [5]: inactive: -0.001 | log2 fold change [6]: inactive: -0.081

PCF11 (UniProt O94913)
log2 fold change [1]: inactive: -0.014 | log2 fold change (volasertib): inactive: -0.114 | log2 fold change [3]: inactive: 0.038 | log2 fold change [4]: inactive: -0.078 | log2 fold change [6]: inactive: -0.03

PCSK6 isoform 7 (UniProt P29122)
log2 fold change [1]: inactive: -0.143 | log2 fold change (volasertib): inactive: -0.077 | log2 fold change [2]: inactive: -0.089 | log2 fold change [3]: inactive: 0.107 | log2 fold change [4]: inactive: -0.049 | log2 fold change (rosiglitazone): inactive: 0.008 | log2 fold change [6]: inactive: -0.158

PDE2A (UniProt O00408)
log2 fold change [1]: inactive: -0.031 | log2 fold change (volasertib): inactive: -0.107 | log2 fold change [2]: inactive: 0.016 | log2 fold change (epoxomicin): inactive: -0.087 | log2 fold change [3]: inactive: -0.082 | log2 fold change [4]: inactive: 0.027 | log2 fold change [5]: inactive: 0 | log2 fold change [6]: inactive: -0.091

PDCD2 (UniProt Q16342)
log2 fold change [1]: inactive: 0.054 | log2 fold change (epoxomicin): inactive: 0.068 | log2 fold change (rosiglitazone): inactive: 0.033 | log2 fold change [5]: inactive: 0.401

PDXP (UniProt B1AHD3)
log2 fold change (epoxomicin): inactive: -0.003 | log2 fold change [4]: inactive: -0.023

PAPOLA (UniProt G3XAH6)
log2 fold change [2]: inactive: 0.134

PCGF6 (UniProt Q9BYE7)
log2 fold change [5]: inactive: -0.013

PCSK7 (UniProt Q16549)
log2 fold change (volasertib): inactive: 0.006 | log2 fold change [7]: inactive: 0.066

PCIF1 (UniProt Q9H4Z3)
log2 fold change [2]: inactive: 0.119 | log2 fold change (epoxomicin): inactive: 0.15 | log2 fold change [7]: inactive: -0.045 | log2 fold change [3]: inactive: -0.07 | log2 fold change [4]: inactive: 0.017 | log2 fold change (rosiglitazone): inactive: 0.087 | log2 fold change [5]: inactive: 0.062 | log2 fold change [6]: inactive: -0.004

PCYT2 (UniProt I3L1F9)
log2 fold change (volasertib): inactive: -0.1

PCBP2 (UniProt F8VZX2)
log2 fold change [2]: inactive: 0.075 | log2 fold change [5]: inactive: 0.098

PAXBP1 (UniProt Q9Y5B6)
log2 fold change [1]: inactive: -0.445 | log2 fold change [7]: inactive: -0.048 | log2 fold change [3]: inactive: 0.153 | log2 fold change (rosiglitazone): inactive: -0.089 | log2 fold change [6]: inactive: 0.148

PAN2 (UniProt Q504Q3)
log2 fold change [1]: inactive: 0.101 | log2 fold change [2]: inactive: 0.167 | log2 fold change [4]: inactive: 0.006 | log2 fold change [5]: inactive: 0.143

PDE4A (UniProt P27815)
log2 fold change (volasertib): inactive: -0.331 | log2 fold change (epoxomicin): inactive: -0.124 | log2 fold change [4]: inactive: 0.082

PDE3B (UniProt Q13370)
log2 fold change (epoxomicin): inactive: -0.006

PBX2 (UniProt P40425)
log2 fold change (volasertib): inactive: -0.251 | log2 fold change [2]: inactive: 0.025 | log2 fold change (epoxomicin): inactive: 0.123 | log2 fold change [3]: inactive: -0.009 | log2 fold change [4]: inactive: 0.023 | log2 fold change [5]: inactive: -0.056 | log2 fold change [6]: inactive: 0.024

PAFAH2 (UniProt Q99487)
log2 fold change (volasertib): inactive: -0.058 | log2 fold change [4]: inactive: 0.005 | log2 fold change [5]: inactive: -0.059

PACSIN3 (UniProt Q9UKS6)
log2 fold change (epoxomicin): inactive: 0.048 | log2 fold change [7]: inactive: 0.169

PDE4DIP (UniProt E9PS60)
log2 fold change [1]: inactive: 0.047 | log2 fold change [4]: inactive: 0.095

PAN3 (UniProt Q58A45)
log2 fold change [3]: inactive: -0.054 | log2 fold change [6]: inactive: -0.23

PCM1 isoform 2 (UniProt Q15154)
log2 fold change [3]: inactive: -0.078 | log2 fold change [5]: inactive: 0.432 | log2 fold change [6]: inactive: 0.174

PARP4 (UniProt Q9UKK3)
log2 fold change [5]: inactive: -0.044

PDE6D (UniProt O43924)
log2 fold change [2]: inactive: -0.179 | log2 fold change (epoxomicin): inactive: 0.105 | log2 fold change [3]: inactive: -0.29 | log2 fold change [4]: inactive: 0.05 | log2 fold change [5]: inactive: -0.096 | log2 fold change [6]: inactive: 0.061

PEMT isoform 2 (UniProt Q9UBM1)
log2 fold change [7]: inactive: 0.001

PAFAH1B1 (UniProt I3L3N5)
log2 fold change (volasertib): inactive: 0.012 | log2 fold change [4]: inactive: -0.076 | log2 fold change (rosiglitazone): inactive: 0.112 | log2 fold change [5]: inactive: 0

PDP1 isoform 2 (UniProt Q9P0J1)
log2 fold change (volasertib): inactive: -0.191 | log2 fold change (rosiglitazone): inactive: 0.071

PABPN1 (UniProt Q86U42)
log2 fold change [3]: inactive: 0.117 | log2 fold change (rosiglitazone): inactive: -0.078 | log2 fold change [5]: inactive: 0.078 | log2 fold change [6]: inactive: 0.157

PEX12 (UniProt O00623)
log2 fold change (volasertib): inactive: 0.14 | log2 fold change [2]: inactive: 0.034 | log2 fold change (epoxomicin): inactive: 0.031 | log2 fold change [7]: inactive: -0.012 | log2 fold change [3]: inactive: -0.066 | log2 fold change [4]: inactive: 0.111 | log2 fold change (rosiglitazone): inactive: 0.036 | log2 fold change [5]: inactive: -0.105 | log2 fold change [6]: inactive: 0.272

PCMTD2 (UniProt Q9NV79)
log2 fold change [2]: inactive: 0.276

PCMTD1 (UniProt Q96MG8)
log2 fold change [2]: inactive: 0.058 | log2 fold change (epoxomicin): inactive: -0.044 | log2 fold change (rosiglitazone): inactive: 0.181 | log2 fold change [5]: inactive: 0.006

PCGF5 (UniProt Q86SE9)
log2 fold change [1]: inactive: -0.168 | log2 fold change (epoxomicin): inactive: 0.264 | log2 fold change (rosiglitazone): inactive: 0.128 | log2 fold change [5]: inactive: 0.335

PALM (UniProt O75781)
log2 fold change [7]: inactive: 0.08 | log2 fold change [4]: inactive: -0.014

PAF1 (UniProt Q8N7H5)
log2 fold change (epoxomicin): inactive: -0.103 | log2 fold change [3]: inactive: 0.101 | log2 fold change [5]: inactive: 0.109 | log2 fold change [6]: inactive: 0.138

PACC1 (UniProt Q9H813)
log2 fold change (volasertib): inactive: -0.063 | log2 fold change [2]: inactive: -0.115 | log2 fold change (epoxomicin): inactive: -0.067 | log2 fold change [4]: inactive: -0.063 | log2 fold change (rosiglitazone): inactive: 0.019 | log2 fold change [5]: inactive: -0.117

PCNX3 (UniProt Q9H6A9)
log2 fold change (volasertib): inactive: -0.338 | log2 fold change [7]: inactive: -0.017

PEX10 isoform 2 (UniProt O60683)
log2 fold change (volasertib): inactive: -0.309 | log2 fold change [3]: inactive: -0.146 | log2 fold change [5]: inactive: -0.018 | log2 fold change [6]: inactive: -0.143
